# Source: patent publication US11921118B2, “Methods for proteome labeling” (The Board of Trustees of the Leland Stanford Junior …, priority 2018, dated 2024)
# B1: ScTyrY43G: yeast tyrosyl-tRNA synthetase with Y43G substitution, charges AzY onto tRNA-Tyr; SEQ ID NO:4 (protein)
# chain: MSSAATVDPNEAFGLITKNLQEVLNPQIIKDVLEVQKRHLKLGWGTAPTGRPHCGYFVPMTKLADFLKAGCEVTVLLADLHAFLDNMKAPLEVVNYRAKYYELTIKAILRSINVPIEKLKFVVGSSYQLTPDYTMDIFRLSNIVSQNDAKRAGADVVKQVANPLLSGLIYPLMQALDEQFLDVDCQFGGVDQRKIFVLAEENLPSLGYKKRAHLMNPMVPGLAQGGKMSASDPNSKIDLLEEPKQVKKKINSAFCSPGNVEENGLLSFVQYVIAPIQELKFGTNHFEFFIDRPEKFGGPITYKSFEEMKLAFKEEKLSPPDLKIGVADAINELLEPIRQEFADNKEFQEASEKGYPVATPQKSKKAKKPKNKGTKYPGATKTNEIATKLEETKL
# B2: MmPheT413G: mouse phenylalanyl-tRNA synthetase with T413G substitution, charges AzF onto tRNA-Phe; SEQ ID NO:5 (protein)
# chain: MADNPVLELLLRRLEVADGGLDSAELATQLGVEHQAVVGAVKSLQALGEVIEAELRSTKCWELTTEGEEIAREGSHEARVFRSIPLEGLVQSELMHLPSGKVGFSKAMSNKWIRVDKSAADGPRVFRVVDSIEDEVQKRLQLVQAGQAEKLAEKERNELRKRKLLTEVILKTYWVSKGKAFSTSVSKQEAELSPEMISSGSWRDRPFKPYNFSARGVLPDSGHLHPLLKVRSQFRQIFLEMGFTEMPTDNFIESSFWNFDALFQPQQHPARDQHDTFFLRDPAEALQLPMGYVQRVKRTHSQGGYGSQGYKYTWKLEEARKNLLRTHTTAASARALYQLAQKKPFTPAKYFSIDRVFRNETLDATHLAEFHQIEGVIADHGLTLGHLMGVLREFFTKLGITQLRFKPAYNPYGEPSMEVFSYHQGLKKWVEVGNSGVFRPEMLLPMGLPENVSVIAWGLSLERPTMIKYGINNIRELVGHKVNLQMVYDSPVCRLDIEPRSSKTQEAA
# Tested on: HEK293T proteins
# Assay: Codon usage analysis of TMT-quantified labeled proteins
# Type: cell-based, human
# Conditions: TTT/TTC for Phe; TAT/TAC for Tyr
# Text: FIG. 13: ScTyrY43G and MmPheT413G label proteins via both of their cognate codons. […] Proteins were TMT-labeled and quantified by mass spectrometry (FIG. 4). […] Data plotted as mean+SEM. *P<0.05; t-test.
# Codon usage analysis. To determine whether ScTyrY43G and MmPheT413G are capable of labeling via both of their cognate codons (TAT and TAC for ScTyrY43G; and TTT and TTC for MmPheT413G), cDNA sequences of TMT-quantified HEK293T proteins were retrieved via the Ensembl human genome database (Human release 92). cDNA sequences were parsed into codon triplets and the number of the four aforementioned codons counted for each protein. […] This yielded a list of proteins that were labeled by ScTyrY43G or MmPheT413G uniquely via that codon.
row,Molecule,cognate codon preference of labeling
1,B1,labels both its cognate codons equally
2,B2,preferentially labels the TTT codon
